Assay results reported in PMC11511861.
No constants are given. Whether binding was seen depends on the method and setting. Binding seen in cells or lysates may run through a third protein. Some binding calls cover weakened binding; strength is not graded here.

Protein sequences, listed by entry. Tags and fused reporters are not part of them. Residues count along the entry.
UniProt P46937: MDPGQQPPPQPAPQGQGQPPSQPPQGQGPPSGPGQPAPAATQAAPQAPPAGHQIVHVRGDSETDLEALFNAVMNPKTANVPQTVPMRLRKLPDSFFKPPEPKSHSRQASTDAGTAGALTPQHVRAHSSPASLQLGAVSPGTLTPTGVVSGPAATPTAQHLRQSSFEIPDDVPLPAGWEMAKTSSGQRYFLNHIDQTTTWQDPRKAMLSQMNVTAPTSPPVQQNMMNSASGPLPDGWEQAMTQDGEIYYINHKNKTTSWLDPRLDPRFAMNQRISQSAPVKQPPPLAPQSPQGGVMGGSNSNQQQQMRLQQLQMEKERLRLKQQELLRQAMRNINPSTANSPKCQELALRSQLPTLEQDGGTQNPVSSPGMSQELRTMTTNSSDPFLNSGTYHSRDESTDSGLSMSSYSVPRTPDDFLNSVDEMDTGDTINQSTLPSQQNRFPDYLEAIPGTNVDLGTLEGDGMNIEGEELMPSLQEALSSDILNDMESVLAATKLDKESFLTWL
UniProt P02545, residues 1-646: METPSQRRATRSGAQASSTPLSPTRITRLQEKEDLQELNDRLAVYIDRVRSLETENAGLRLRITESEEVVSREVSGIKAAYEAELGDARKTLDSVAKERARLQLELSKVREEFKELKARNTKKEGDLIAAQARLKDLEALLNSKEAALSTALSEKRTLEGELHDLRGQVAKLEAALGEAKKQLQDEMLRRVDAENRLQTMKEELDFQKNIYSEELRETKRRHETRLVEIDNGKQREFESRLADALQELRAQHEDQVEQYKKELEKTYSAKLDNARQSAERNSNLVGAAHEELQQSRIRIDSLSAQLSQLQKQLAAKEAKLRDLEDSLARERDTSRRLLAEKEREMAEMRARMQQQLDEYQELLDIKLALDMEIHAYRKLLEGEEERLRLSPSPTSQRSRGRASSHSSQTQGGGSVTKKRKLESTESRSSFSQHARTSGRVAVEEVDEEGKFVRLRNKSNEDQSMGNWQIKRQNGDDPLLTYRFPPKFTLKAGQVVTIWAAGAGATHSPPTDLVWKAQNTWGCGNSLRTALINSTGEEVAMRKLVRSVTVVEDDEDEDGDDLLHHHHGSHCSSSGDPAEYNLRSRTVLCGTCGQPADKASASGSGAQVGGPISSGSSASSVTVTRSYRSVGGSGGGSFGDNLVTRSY
UniProt P25490: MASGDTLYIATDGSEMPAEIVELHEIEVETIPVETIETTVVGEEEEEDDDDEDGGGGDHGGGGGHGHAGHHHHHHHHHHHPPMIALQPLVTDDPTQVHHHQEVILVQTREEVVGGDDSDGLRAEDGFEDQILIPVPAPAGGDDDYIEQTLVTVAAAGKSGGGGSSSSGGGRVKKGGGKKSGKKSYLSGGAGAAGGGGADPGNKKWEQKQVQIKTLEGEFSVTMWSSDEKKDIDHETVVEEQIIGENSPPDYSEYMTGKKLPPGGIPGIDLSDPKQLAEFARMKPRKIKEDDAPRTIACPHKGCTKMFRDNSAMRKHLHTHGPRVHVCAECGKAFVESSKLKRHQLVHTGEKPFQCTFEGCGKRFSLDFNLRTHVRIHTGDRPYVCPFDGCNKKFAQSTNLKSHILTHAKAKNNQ
UniProt P01106: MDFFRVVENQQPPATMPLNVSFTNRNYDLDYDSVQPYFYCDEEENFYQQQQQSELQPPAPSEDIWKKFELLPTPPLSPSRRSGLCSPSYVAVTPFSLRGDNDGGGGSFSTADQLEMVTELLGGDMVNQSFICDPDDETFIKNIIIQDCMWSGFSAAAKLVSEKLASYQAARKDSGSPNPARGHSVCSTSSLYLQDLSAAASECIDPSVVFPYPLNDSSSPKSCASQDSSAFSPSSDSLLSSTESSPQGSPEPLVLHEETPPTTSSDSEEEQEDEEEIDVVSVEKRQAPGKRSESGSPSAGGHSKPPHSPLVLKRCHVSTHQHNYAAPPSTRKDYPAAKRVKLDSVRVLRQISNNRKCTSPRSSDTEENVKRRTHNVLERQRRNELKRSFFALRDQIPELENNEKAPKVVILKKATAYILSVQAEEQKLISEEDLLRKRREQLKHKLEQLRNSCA

Tests used:
[1] = molecular target: YAP (human (endogenous in H1299)) (UniProt P46937); assay: proximity ligation; Duolink in situ PLA kit on fixed H1299 cells; endogenous proteins
[2] = molecular target: YAP (human (endogenous in H1299)) (UniProt P46937); assay: co-IP; H1299 protein lysates immunoprecipitated with anti-IgG, anti-YAP, anti-pMYC or anti-YY1 antibodies, then Western blot; 5-10% of total lysate as input; endogenous proteins

| Substance | binding [1] | binding [2] |
| --- | --- | --- |
| Lamin A/C (from UniProt P02545 1-646) | binds | binds |
| YY1 (Yin Yang 1) transcription factor (from UniProt P25490 1-414) | binds | binds |
| pMYC (from UniProt P01106 1-454) | binds | binds |
